Reference: the supplement of paper PMC10849652
This is one part of the list.

Amino acid sequences for entries named in this document (tags omitted). A change or cut given only in a name is not applied to a line headed by its entry.
UniProt O75155: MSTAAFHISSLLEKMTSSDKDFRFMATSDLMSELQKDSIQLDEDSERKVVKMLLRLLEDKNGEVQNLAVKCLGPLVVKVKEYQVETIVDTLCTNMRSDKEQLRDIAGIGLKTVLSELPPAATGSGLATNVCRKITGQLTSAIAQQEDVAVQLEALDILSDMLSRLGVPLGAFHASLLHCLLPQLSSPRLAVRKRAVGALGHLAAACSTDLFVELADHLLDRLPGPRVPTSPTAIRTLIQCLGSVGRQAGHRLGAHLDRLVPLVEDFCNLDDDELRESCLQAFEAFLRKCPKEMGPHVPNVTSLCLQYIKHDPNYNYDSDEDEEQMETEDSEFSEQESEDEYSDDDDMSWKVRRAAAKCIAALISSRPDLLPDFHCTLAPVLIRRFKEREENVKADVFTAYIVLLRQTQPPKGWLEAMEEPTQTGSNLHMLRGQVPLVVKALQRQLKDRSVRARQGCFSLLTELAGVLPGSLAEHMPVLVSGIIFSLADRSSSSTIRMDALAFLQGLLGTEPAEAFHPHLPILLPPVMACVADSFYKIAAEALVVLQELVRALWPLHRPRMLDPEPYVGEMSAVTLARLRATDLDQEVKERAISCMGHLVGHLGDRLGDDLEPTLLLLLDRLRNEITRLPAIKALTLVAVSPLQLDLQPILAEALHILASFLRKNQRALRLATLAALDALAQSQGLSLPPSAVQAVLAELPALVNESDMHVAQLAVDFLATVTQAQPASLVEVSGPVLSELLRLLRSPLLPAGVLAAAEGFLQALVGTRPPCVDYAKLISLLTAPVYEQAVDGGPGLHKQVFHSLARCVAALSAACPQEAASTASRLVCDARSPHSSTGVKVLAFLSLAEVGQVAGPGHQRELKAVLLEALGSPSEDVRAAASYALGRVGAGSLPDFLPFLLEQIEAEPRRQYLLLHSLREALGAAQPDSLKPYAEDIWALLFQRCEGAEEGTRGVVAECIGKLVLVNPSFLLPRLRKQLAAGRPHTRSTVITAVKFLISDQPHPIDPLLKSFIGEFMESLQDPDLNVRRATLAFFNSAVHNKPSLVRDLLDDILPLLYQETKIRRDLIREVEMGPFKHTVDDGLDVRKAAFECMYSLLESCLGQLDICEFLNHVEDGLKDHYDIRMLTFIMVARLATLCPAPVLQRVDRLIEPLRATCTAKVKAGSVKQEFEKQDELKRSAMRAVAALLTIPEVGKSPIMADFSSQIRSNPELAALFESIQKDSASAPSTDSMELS
UniProt P35613: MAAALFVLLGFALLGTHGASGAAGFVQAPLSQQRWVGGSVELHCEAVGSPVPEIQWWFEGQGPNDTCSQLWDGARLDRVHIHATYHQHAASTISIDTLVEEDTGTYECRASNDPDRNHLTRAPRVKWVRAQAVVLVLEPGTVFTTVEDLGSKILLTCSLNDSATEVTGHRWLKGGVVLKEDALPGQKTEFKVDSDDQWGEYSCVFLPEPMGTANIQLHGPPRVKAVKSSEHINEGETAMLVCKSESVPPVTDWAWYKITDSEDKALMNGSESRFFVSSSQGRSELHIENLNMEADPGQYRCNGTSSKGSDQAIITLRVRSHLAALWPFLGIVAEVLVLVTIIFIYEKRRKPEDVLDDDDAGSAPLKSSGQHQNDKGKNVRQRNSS
UniProt P27824: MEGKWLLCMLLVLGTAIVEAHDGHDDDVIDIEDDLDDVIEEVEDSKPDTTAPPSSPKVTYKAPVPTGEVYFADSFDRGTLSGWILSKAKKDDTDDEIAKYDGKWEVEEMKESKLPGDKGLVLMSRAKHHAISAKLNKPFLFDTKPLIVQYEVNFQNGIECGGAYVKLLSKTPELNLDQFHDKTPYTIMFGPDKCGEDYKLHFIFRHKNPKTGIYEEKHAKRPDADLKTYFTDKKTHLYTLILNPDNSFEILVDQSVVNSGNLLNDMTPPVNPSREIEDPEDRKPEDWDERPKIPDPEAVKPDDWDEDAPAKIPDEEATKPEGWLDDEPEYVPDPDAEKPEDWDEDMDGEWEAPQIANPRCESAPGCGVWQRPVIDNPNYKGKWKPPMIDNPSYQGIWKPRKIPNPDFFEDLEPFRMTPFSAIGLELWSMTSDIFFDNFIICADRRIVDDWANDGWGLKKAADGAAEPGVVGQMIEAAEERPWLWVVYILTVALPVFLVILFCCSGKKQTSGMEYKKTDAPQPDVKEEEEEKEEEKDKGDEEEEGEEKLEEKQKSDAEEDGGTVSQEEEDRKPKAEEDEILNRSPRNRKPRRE
UniProt Q8WVQ1: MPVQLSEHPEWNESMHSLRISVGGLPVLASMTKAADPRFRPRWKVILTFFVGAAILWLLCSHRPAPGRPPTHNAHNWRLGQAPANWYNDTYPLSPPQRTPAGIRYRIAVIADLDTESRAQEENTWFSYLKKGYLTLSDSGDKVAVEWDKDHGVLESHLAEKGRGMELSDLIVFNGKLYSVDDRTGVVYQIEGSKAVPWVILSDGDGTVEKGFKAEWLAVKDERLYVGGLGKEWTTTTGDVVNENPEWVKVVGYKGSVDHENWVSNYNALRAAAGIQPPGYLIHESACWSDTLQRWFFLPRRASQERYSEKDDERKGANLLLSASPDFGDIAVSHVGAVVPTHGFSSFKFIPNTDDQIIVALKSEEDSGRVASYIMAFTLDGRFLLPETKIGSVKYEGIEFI
UniProt Q9BV19: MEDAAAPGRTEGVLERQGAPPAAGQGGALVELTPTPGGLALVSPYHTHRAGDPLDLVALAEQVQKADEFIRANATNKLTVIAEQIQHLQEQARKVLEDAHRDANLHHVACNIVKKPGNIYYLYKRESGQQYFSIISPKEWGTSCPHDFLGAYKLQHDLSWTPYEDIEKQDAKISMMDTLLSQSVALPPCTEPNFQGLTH
UniProt Q96EU7: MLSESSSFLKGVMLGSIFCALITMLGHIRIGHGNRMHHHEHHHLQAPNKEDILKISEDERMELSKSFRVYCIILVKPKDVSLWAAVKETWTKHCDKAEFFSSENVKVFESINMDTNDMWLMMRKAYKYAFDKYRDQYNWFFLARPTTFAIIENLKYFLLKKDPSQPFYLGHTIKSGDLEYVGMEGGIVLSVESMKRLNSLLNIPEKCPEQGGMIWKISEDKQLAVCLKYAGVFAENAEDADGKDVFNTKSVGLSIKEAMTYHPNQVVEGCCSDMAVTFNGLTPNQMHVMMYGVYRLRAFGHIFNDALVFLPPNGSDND
UniProt Q6P1X6: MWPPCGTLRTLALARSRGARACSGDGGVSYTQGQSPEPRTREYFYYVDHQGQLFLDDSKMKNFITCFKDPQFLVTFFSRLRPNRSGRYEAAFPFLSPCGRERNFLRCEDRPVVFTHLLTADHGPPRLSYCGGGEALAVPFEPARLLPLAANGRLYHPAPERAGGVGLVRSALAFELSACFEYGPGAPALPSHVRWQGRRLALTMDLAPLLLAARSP
UniProt P40121: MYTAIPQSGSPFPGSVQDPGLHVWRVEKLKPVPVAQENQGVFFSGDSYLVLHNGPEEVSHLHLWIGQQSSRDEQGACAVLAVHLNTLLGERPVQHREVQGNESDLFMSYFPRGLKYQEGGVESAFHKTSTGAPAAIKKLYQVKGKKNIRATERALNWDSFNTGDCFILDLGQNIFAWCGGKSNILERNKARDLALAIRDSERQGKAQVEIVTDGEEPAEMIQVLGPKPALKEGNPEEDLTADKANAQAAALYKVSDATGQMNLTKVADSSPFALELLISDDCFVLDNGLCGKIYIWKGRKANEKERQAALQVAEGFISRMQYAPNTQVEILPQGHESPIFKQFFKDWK
UniProt Q8N8R5: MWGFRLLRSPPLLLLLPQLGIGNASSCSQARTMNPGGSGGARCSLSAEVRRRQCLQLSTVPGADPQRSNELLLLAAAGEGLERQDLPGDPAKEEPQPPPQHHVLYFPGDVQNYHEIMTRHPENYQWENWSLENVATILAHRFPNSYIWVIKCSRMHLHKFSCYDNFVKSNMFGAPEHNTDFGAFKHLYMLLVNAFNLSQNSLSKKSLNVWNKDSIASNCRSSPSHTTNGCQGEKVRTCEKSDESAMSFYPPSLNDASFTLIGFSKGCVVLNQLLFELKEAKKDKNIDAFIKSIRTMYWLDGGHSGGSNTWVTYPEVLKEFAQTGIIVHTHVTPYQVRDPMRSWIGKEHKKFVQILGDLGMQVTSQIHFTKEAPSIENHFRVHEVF
UniProt Q6P1S2: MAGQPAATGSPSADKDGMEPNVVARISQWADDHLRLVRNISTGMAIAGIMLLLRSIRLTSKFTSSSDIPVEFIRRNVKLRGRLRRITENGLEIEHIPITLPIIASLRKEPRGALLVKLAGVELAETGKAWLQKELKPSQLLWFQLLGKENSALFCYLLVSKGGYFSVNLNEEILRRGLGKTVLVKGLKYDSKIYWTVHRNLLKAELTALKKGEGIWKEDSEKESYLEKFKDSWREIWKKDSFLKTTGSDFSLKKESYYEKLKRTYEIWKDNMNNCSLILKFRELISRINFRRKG

Compound: c1cn2cc(-c3ccc4cn[nH]c4c3)nc(Nc3ccc(N4CCOCC4)cc3)c2n1 [entospletinib]
Assay: log2 fold change, soluble protein after heating vs DMSO (PISA); higher = thermal stabilisation; K562 cells, 10 uM, 30 min; active = over 0.2 and 3.5 SD of the protein, either way, in both replicates (recomputed)
How it was run: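 Soluble protein was quantified by TMTpro 16plex LC-MS/MS after channel sums were equalised. It was obtained as the supernatant after 21,000xg for 90 min from pooled aliquots of K562 cells (2×10^6 cells/mL, 10 μM compound, 30 min) heated for 3 min across 48°C-58°C and extracted in PBS with 0.5% NP-40 at 4°C. Thermal stability values are relative to control samples and come from duplicates. They are given as log2 fold changes.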

In the case of CAND2 (UniProt O75155), the log2 fold change is reported as inactive: -0.023.
For BSG (UniProt P35613), the log2 fold change was inactive: 0.002.
In the case of CANX isoform 2 (UniProt P27824), the log2 fold change is reported as inactive: 0.018.
In the case of CANT1 (UniProt Q8WVQ1), the log2 fold change is reported as inactive: 0.049.
C1orf50 (UniProt Q9BV19) was tested, and the log2 fold change was inactive: 0.035.
In the case of C1GALT1C1 (UniProt Q96EU7), the log2 fold change is reported as inactive: 0.032.
In the case of C8orf82 (UniProt Q6P1X6), the log2 fold change is reported as inactive: -0.002.
CAPG (UniProt P40121) was tested, and the log2 fold change was inactive: -0.026.
For C2orf69 (UniProt Q8N8R5), the log2 fold change was inactive: -0.046.
C3orf33 (UniProt Q6P1S2) was tested, and the log2 fold change was inactive: 0.037.
